According to paper PMC3869763:
No constants are given. Whether binding was seen depends on the method and setting. In cells and extracts the contact can be indirect. Some binding calls cover weakened binding; strength is not graded here. For some of these results: Sequences can lack the tags named with a protein. One block for each molecule: values may come before it.

Sequences of proteins named here, by UniProt entry; tags and fusion partners are left off.
UniProt Q7TQJ8: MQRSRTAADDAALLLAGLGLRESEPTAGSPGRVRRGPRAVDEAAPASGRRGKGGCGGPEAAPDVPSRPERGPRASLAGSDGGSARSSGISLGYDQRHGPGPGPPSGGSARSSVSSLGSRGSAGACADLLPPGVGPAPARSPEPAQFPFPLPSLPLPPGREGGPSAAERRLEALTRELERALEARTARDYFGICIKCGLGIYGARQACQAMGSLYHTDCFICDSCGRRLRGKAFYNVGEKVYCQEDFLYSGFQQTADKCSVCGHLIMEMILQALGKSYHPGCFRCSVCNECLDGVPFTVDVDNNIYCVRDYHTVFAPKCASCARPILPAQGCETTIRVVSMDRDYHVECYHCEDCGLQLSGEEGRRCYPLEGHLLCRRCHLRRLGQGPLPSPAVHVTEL
UniProt Q80TS7: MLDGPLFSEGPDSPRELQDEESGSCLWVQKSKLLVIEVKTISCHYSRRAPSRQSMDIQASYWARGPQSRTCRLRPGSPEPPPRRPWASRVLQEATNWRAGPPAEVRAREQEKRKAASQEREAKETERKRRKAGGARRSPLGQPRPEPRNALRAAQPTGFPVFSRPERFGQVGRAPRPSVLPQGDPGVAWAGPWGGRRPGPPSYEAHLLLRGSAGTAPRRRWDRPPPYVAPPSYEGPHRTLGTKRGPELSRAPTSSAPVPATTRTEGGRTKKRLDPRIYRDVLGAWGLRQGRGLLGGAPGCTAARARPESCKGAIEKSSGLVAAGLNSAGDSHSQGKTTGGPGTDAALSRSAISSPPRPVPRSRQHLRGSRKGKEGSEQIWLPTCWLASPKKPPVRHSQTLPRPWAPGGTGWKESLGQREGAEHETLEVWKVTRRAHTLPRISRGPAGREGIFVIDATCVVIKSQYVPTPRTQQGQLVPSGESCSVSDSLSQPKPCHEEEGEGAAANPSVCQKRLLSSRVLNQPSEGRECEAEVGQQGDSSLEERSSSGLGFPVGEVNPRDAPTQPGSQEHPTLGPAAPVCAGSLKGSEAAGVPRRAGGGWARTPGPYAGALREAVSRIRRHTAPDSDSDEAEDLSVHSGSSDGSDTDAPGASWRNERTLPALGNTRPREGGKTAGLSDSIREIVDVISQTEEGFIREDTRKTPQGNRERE

Experiments:
Experiment in all cases: co-IP; HEK293 cells co-transfected with two tagged constructs; immunoprecipitation with anti-flag, anti-ha or anti-myc antibody, Western blot; irrelevant expression constructs as controls
[1] = target: T1, myc-tagged growth arrest and DNA-damage-inducible 45 alpha (Gadd45a) (UniProt P48316)
T1 sequence: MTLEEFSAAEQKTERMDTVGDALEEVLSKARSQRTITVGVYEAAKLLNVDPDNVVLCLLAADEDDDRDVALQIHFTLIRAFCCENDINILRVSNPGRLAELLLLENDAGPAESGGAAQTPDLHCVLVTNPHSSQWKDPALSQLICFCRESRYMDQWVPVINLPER

[2] = target: myc-tagged Wt1-interacting protein (Wtip) (UniProt Q7TQJ8)
[3] = target: ha-tagged dendrin (mouse) (UniProt Q80TS7)
[4] = target: flag-tagged dendrin (mouse) (UniProt Q80TS7)

Molecule: flag-tagged dendrin (from UniProt Q80TS7 1-710)
binding [1]: binds

binding [2]: binds
Molecule: ha-tagged dendrin (from UniProt Q80TS7 1-710)

binding [3]: binds
Molecule: myc-tagged Wt1-interacting protein (Wtip) (from UniProt Q7TQJ8 1-398)

binding [4]: binds
B1: myc-tagged growth arrest and DNA-damage-inducible 45 alpha (Gadd45a) (protein, UniProt P48316 1-165)
chain: T1 sequence
